Screening data, single-dose tests

Protein sequences, listed by entry. Tags and fused reporters are not part of them. Residues count along the entry.
UniProt Q8IDJ8, 1-583: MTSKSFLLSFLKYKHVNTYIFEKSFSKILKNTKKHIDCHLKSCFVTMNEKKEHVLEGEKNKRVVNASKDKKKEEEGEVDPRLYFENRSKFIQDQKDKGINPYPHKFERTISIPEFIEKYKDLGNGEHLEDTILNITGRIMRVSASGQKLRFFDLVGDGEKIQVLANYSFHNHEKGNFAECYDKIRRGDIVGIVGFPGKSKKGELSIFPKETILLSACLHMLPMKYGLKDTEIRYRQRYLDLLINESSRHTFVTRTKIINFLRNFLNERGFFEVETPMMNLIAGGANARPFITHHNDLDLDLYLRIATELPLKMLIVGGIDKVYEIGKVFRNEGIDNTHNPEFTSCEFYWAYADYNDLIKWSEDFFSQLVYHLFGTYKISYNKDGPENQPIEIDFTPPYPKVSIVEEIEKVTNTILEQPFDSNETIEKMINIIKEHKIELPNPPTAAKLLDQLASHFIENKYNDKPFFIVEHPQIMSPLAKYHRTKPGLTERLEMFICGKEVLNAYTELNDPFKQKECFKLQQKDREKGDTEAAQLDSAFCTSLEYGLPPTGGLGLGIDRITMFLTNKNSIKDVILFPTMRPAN
UniProt A4I591, 1-473: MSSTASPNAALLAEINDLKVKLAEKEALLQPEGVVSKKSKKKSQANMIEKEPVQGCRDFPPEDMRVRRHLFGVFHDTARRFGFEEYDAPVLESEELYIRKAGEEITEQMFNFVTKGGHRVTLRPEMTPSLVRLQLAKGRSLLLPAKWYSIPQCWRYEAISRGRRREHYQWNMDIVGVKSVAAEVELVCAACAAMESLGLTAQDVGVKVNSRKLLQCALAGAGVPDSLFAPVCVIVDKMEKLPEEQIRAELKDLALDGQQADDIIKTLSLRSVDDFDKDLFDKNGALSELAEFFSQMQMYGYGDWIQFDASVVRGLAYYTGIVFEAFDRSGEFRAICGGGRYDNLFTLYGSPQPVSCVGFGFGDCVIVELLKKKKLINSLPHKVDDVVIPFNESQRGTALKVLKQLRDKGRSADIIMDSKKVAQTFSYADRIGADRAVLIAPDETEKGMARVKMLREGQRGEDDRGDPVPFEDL

Each number is a percent effect as filed.
The controls that fix the scale are not given in the record; negative values are as filed.
Compounds were drawn at random from those tested, without regard to their results.

Leishmania in macrophages: 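Cell assay of Leishmania donovani living inside macrophages; the read-out is not stated. Tested at 30 µM. The record gives no direction; compounds that gave an IC50 in retests scored well above the rest, so higher reads as stronger inhibition. About 69,000 compounds were tested under these conditions; 1.5% (about 1,000) showed 50% or more at least once.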
PfKRS1: 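Lysine-tRNA ligase, Plasmodium falciparum 3D7 (UniProt Q8IDJ8). Enzyme assay of the cytosolic lysyl-tRNA synthetase in 384-well plates, read by luminescence. Tested at 30 µM. Higher reads as stronger inhibition, judged from the few compounds that gave an IC50. Size under these conditions: about 69,000 compounds, about 49 of them at 50% or above in at least one test.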
LiHisRS: 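Histidine-tRNA ligase, Leishmania infantum (UniProt A4I591). Enzyme assay of histidyl-tRNA synthetase; the read-out is not stated. Concentration: 30 µM. The record gives no direction; compounds that gave an IC50 in retests scored well above the rest, so higher reads as stronger inhibition. The assay is labelled LdHisRS but filed under L. infantum. Size under these conditions: about 69,000 compounds, about 410 of them at 50% or above in at least one test.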

For CN(C)c1ccc(C(=O)N2CCCN(Cc3cnn(C)c3)CC2)nn1 the result was Leishmania in macrophages: 0.4294%; PfKRS1: 0.4217%; LiHisRS: 12.04%. For Cc1cc(C)n(CC2CCCN2CC(=O)Nc2nncs2)n1 (stereo unspecified) the result was Leishmania in macrophages: 7.85%; PfKRS1: 0.1955%; LiHisRS: 0%. Cc1noc(C)c1-c1cccc(C2CCN(S(=O)(=O)N(C)C)CC2)n1 read Leishmania in macrophages: 24.43%; PfKRS1: -1.138%; LiHisRS: 12.59%. Result for CC(C)c1nc(CN(C)C2CCN(CCc3ccncc3)C2)no1 (stereo unspecified) was Leishmania in macrophages: 35.17%; PfKRS1: -1.715%; LiHisRS: 17.09%. c1ccc(CN2CCc3c(COCc4ccncc4)cncc3C2)nc1 gave PfKRS1: 2.687%; LiHisRS: -26.61%. With Cc1ccc2c(n1)N(C)CCN(C(=O)C1CC1)C2.O=C(O)C(F)(F)F the screen gave Leishmania in macrophages: -10.16%. COc1c(C(=O)N2CCOC(c3cccs3)C2)c(C)nn1C (stereo unspecified) gave Leishmania in macrophages: 20.47%; PfKRS1: -1.743%; LiHisRS: 1.01%. Result for CCc1nc2c(c(N(C)Cc3nncn3CCOC)n1)CCNCC2 was Leishmania in macrophages: 8.926%; PfKRS1: 4.362%; LiHisRS: -5.479%.

CN1CCN2C[C@@H](NC(=O)c3nc4ccccc4[nH]3)C[C@H]2C1 gave PfKRS1: -0.9496%; LiHisRS: 19.18%. With Cc1cc(O)nc(C2CCCN(CCO)C2)n1 (stereo unspecified) the screen gave Leishmania in macrophages: 9.716%; PfKRS1: 1.083%; LiHisRS: 5.674%. Result for CC(C)c1nc(CN2CCN(C(=O)CC3CCCCC3)CC2)no1 was Leishmania in macrophages: 3.491%; PfKRS1: 4.524%; LiHisRS: 12.5%. COc1ccc2c(c1)ncn2C[C@]1(O)CCCN2CCCC[C@@H]21 read PfKRS1: 4.075%; LiHisRS: 4.196%. For CNC(=O)CC1CC2(CCN(S(C)(=O)=O)CC2)c2ccccc21 (stereo unspecified) the result was Leishmania in macrophages: 15.79%; PfKRS1: 1.26%; LiHisRS: 7.965%. Cc1sc(-c2ccco2)nc1C(=O)N(CC(N)=O)C1CCCC1 read Leishmania in macrophages: 17.09%; PfKRS1: 7.018%; LiHisRS: 10.96%. For CC(C)(C)c1nnc(CN2CCN(C(=O)CC3CCCCC3)CC2)o1 the result was Leishmania in macrophages: 20.08%; PfKRS1: 5.368%; LiHisRS: 23.29%. With COc1cc(N2CCCC3(CCN(c4cccnc4)C3=O)C2)ncn1 (stereo unspecified) the screen gave PfKRS1: 0.6564%; LiHisRS: 24%.

O=C(c1nc(=O)[nH][nH]1)N1CCCC(c2cc(C(F)(F)F)[nH]n2)C1 (stereo unspecified) read Leishmania in macrophages: -2.874%; PfKRS1: -1.42%; LiHisRS: 24.62%. COc1ccccc1OCC(=O)NS(=O)(=O)c1cccnc1 gave Leishmania in macrophages: 2.2%; PfKRS1: 0.9755%; LiHisRS: 20.35%. For CN1C(=O)CC(c2cnn(C)c2)C12CCN(C(=O)C1CC=CC1)CC2 (stereo unspecified) the result was Leishmania in macrophages: -12.12%; PfKRS1: -3.528%; LiHisRS: 1.504%. Result for CCC(C)NC(=O)c1cccc(CNCc2csc(C(C)C)n2)c1 (stereo unspecified) was Leishmania in macrophages: -22.54%; PfKRS1: -7.271%; LiHisRS: 2.469%. c1coc(CN2CCc3onc(Cn4ccnc4)c3C2)c1 read Leishmania in macrophages: 16.34%; PfKRS1: 7.326%; LiHisRS: 20%. Result for COc1ncccc1C1CC(=O)NCc2nc3sccn3c21 (stereo unspecified) was Leishmania in macrophages: -37.98%; PfKRS1: 1.651%; LiHisRS: 12.5%.

Repeated from the top, 2 entries:

- CN(C)c1ccc(C(=O)N2CCCN(Cc3cnn(C)c3)CC2)nn1 : Leishmania in macrophages: 0.4294%; PfKRS1: 0.4217%; LiHisRS: 12.04%
- Cc1cc(C)n(CC2CCCN2CC(=O)Nc2nncs2)n1 (stereo unspecified) : Leishmania in macrophages: 7.85%; PfKRS1: 0.1955%; LiHisRS: 0%

Source: ChEMBL document CHEMBL3988442, “University of Dundee, Small-Polar-MMV Screening Library” (2021).